Measurements from article PMC11707362, “Endothelial-secreted Endocan activates PDGFRA and regulates vascularity and spatial phenotype in glioblastoma” (Nature Communications, 2025).
Results are given in words; binding and its absence hold for the method and conditions named. Some results given as binding are weak or reduced against the parent protein; the word gives no strength.

By UniProt entry, the sequences of proteins in these tests, tags left out. Residues count along the entry.
UniProt P16234, residues 24-1089: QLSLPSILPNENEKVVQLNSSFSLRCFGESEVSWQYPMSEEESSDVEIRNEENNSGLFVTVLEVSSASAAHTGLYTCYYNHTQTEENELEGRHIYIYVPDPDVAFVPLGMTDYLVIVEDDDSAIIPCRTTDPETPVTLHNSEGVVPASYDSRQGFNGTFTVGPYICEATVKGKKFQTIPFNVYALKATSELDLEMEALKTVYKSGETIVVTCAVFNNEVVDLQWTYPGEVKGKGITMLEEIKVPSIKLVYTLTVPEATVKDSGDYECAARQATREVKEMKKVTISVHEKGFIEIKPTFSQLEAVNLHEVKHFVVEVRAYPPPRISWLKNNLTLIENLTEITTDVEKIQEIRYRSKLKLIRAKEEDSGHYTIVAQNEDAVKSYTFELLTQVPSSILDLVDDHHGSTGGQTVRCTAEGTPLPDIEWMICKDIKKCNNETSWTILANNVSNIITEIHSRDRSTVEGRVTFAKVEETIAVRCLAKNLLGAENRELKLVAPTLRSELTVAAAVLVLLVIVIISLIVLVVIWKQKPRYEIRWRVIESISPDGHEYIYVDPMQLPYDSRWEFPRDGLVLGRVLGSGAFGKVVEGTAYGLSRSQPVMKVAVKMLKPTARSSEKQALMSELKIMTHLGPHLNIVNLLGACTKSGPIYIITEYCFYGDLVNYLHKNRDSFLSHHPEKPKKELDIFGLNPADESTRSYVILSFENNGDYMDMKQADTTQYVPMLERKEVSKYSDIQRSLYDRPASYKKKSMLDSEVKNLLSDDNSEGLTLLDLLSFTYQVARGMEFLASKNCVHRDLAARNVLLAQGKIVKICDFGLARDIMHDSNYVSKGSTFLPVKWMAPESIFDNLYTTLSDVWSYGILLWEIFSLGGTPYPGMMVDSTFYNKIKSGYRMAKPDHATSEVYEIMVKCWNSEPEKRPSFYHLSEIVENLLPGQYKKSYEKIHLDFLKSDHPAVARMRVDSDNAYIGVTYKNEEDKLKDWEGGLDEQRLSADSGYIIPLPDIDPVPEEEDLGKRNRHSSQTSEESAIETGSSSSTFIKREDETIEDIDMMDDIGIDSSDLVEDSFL

Target: PDGFRA, endogenous, on 1079 glioblastoma cells (human (endogenous in 1079 glioblastoma cells)) (UniProt P16234)
Test: flow cytometry on cells; competition binding: 1079 cells incubated with indicated concentrations of Endocan-Alexa488 and PDGF-BB-Alexa647 for 30 min on ice, washed twice with PBS; only the binder purified

binding: binds
B1: rEndocan labeled with Alexa488 (ligand, UniProt Q9NQ30 20-184)
chain: WSNNYAVDCPQHCDSSECKSSPRCKRTVLDDCGCCRVCAAGRGETCYRTVSGMDGMKCGPGLRCQPSNGEDPFGEEFGICKDCPYGTFGMDCRETCNCQSGICDRGTGKCLKFPFFQYSVTKSSNRFVSLTEHDMASGDGNIVREEVVKENAAGSPVMRKWLNPR
modifications: Alexa Fluor 488 label
